According to patent US8383887B2, “Methods of using plants containing the gdhA gene” (Southern Illinois University Carbondale, priority 2009, dated 2013):
Values joined by “and” are separate entries in the source; they are usually repeats but may differ in a detail not shown here. Equal values may be shown once.

Test system: gdhA+ Nicotiana tabacum plants
Assay: Metabolites with altered abundance in leaf and root extracts of gdhA+ vs gdhA− Nicotiana tabacum
Settings: for Percent Change in abundance in gdhA+ plants compared to gdhA− plants: Nicotiana tabacum
[1] = root extracts, % changes are ±2%
[2] = root extracts, gdhA+ plants compared to gdhA− plants, % changes are ±2%
[3] = root extracts, metabolite abundance, gdhA+ vs gdhA− Nicotiana tabacum
[4] = leaf extracts, % changes are ±2%
[5] = fatty acids (Table 6Ii), tissue not given
[6] = leaf extracts, gdhA+ plants compared to gdhA− plants, % changes are ±2%
[7] = leaf extracts, metabolite abundance, gdhA+ vs gdhA− Nicotiana tabacum

`O[C@H]1[C@H]2[C@H](O)CCCN2C[C@H]1O` [Swainsonine] was tested, and the “Percent Change in abundance in gdhA+ plants compared to gdhA− plants” value (“Percent Change in abundance” for short) [1] was 500%.

With `C=CCOC(=O)CCCCCCCC1OC1CCCCCCCC` (stereo not drawn) [Octadecanoic acid, 9,10-epoxy-, allyl ester] the “Percent Change in abundance” value [1] was 10%.

For `CN(C)C(=O)NC1CCCCCCC1` [Cyclooctyl-1,1-dimethylurea], the “Percent Change in abundance” value [1] was 24% and the “Percent Change” value [2] was 24%.

`C=C(CC(=O)OCC(CC)CCCC)C(=O)OCC(CC)CCCC` (stereo not drawn) [Di(2-ethylhexyl) itaconate] was tested, and the “Percent Change in abundance” value [1] was 40% and the “Percent Change” value [2] was 40%.

`O=c1ccn([C@@H]2O[C@H](CO)[C@@H](O)[C@H]2O)c(=O)[nH]1` [Uridine] was tested, and the “Percent Change in abundance” value [1] was 400% and the “Percent Change” value [3] was 400%.

`CC(=O)c1ccccc1` [Acetophenone] was tested, and the “Percent Change in abundance” value [4] was 238% and the “Percent Change in abundance” value [1] was 54%.

In the case of `O=C(O)C(=O)C[C@H](O)[C@@H](O)[C@@H](O)[C@H](O)[C@H](O)CO` [3-Deoxy-D-glycero-D-galacto-2-nonulosonic Acid], the “Percent Change in abundance” value [4] was 159% and the “Percent Change in abundance” value [1] was 233%.

`CN1CCC[C@H]1c1ccc(O)nc1` [(S)-6-Hydroxynicotine] was tested, and the “Percent Change in abundance” value [1] was 263%.

In the case of `CCCCCCCCCC/C=C/C(=O)O` [trans-2-Tridecenoic acid], the “Percent Change” value [5] was 50%.

With `O=C1C[C@@H](O)CN1` [R-4-hydroxy-2-pyrrolidone] the “Percent Change in abundance” value [1] was 435% and the “Percent Change” value [2] was 435%.

With `C[C@@H](O)[C@H](N)C(=O)O` [Threonine] the “Percent Change” value [3] was 435%.

For `COc1ccccc1OCC(O)COC(N)=O` (stereo not drawn) [Methocarbamol], the “Percent Change in abundance” value [1] was 244% and the “Percent Change” value [2] was 244%.

In the case of `CCCCCCCCCCCCC(C(=O)O)C(=O)O` [Dodecylmalonic acid], the “Percent Change in abundance” value [1] was 46% and the “Percent Change” value [2] was 46%.

In the case of `O[C@@H]1[C@@H](O)[C@@H]2OC[C@@H](O2)[C@H]1O` [1,6-Anhydro-beta-D-glucopyranose], the “Percent Change in abundance” value [1] was 263%.

`CC(C)(CO)[C@@H](O)C(=O)NCCCC(=O)O` [Hopantenic acid] was tested, and the “Percent Change in abundance” value [4] was 34% and the “Percent Change” value [6] was 34%.

`N[C@@H](Cc1c[nH]c2ccccc12)C(=O)O` [Tryptophan] was tested, and the “Percent Change” value [7] was 217% and the “Percent Change” value [3] was 222%.

`COc1nccnc1C` [2-methoxy-3-methyl-pyrazine] was tested, and the “Percent Change in abundance” value [1] was 51% and the “Percent Change” value [2] was 51%.

With `CCCCCCCCCCC(=O)O` [Undecanoic acid] the “Percent Change” value [5] was 21% and the “Percent Change in abundance” value [1] was 13% and 21%.

In the case of `O=C(O)CCCCCCCCCC(=O)O` [Undecanedioic acid], the “Percent Change” value [5] was 14% and the “Percent Change in abundance” value [1] was 14%.

With `CCCCC/C=C\C/C=C\CCCCCCCC(=O)OCC` [Ethyl linoleate] the “Percent Change in abundance” value [1] was 31%.

In the case of `N=C(N)NCCC[C@H](N)C(=O)O` [Arginine], the “Percent Change” value [7] was 127% and the “Percent Change” value [3] was 222%.

`CCC/C=C\C(N)=O` [cis-2-hexenoic acid amide] was tested, and the “Percent Change in abundance” value [1] was 26% and the “Percent Change” value [2] was 26%.

In the case of `O=C(CO)c1ccccc1` [alpha-Hydroxyacetophenone], the “Percent Change in abundance” value [1] was 49%.

`CC1(C)CCCC(C)(C)N1N=O` [2,2,6,6-tetramethyl-N-nitrosopiperidine] was tested, and the “Percent Change in abundance” value [1] was 29% and the “Percent Change” value [2] was 29%.

With `COc1cc2ccc(=O)oc2cc1O` [Scopoletin] the “Percent Change in abundance” value [4] was 244%.

In the case of `CCCCCCCCC(=O)O` [Pelargonic acid], the “Percent Change” value [5] was 13% and the “Percent Change in abundance” value [1] was 13%.

For `CC(=O)Nc1cnc2ccccc2c1` [3-acetylaminoquinoline], the “Percent Change in abundance” value [1] was 34%.

`CCCCC[C@@H]1OC1=C/C=C\CCCCCCCC(=O)O` [(9Z)-(13S)-12,13-Epoxyoctadeca-9,11-dienoate] was tested, and the “Percent Change in abundance” value [1] was 192%.

`O=C1OC(=O)c2ccccc21` [Phthalic anhydride] was tested, and the “Percent Change in abundance” value [1] was 24% and the “Percent Change” value [2] was 24%.

For `O=C(O)CC(O)C(=O)O` (racemic) [DL-malic acid], the “Percent Change in abundance” value [1] was 270%.

In the case of `O=C(O)C1CC(O)C=N1` (stereo not drawn) [3-hydroxy-1-pyrroline-gamma-carboxylate], the “Percent Change in abundance” value [1] was 244%.

With `NC(=O)Cc1nc(-c2ccccc2)cs1` [4-phenyl-2-thiazoleethanamide] the “Percent Change in abundance” value [4] was 47% and the “Percent Change” value [6] was 47%.

`NCCCCNC(=O)/C=C/c1ccc(O)c(O)c1` [N-caffeoylputrescine] was tested, and the “Percent Change in abundance” value [4] was 196% and the “Percent Change in abundance” value [1] was 19% and 26% and 25%.

`CCCCCCCCCCCCCCCCCC(=O)O` [Stearic acid] was tested, and the “Percent Change” value [5] was 11%.

`O=C(O)CCCCCCCCC(=O)O` [Sebacic Acid] was tested, and the “Percent Change in abundance” value [1] was 16% and the “Percent Change” value [2] was 16%.

In the case of `C=COC(=O)CCCCCCCCCCCCCCCCC` [Octadecanoic acid, ethenyl ester], the “Percent Change in abundance” value [1] was 17%.

For `N#CC(=O)c1ccco1` [2-furylglyoxylonitrile], the “Percent Change in abundance” value [4] was 182% and the “Percent Change” value [6] was 182%.

For `O=C1CCCCCCCCCCCCCCC1` [Cyclohexadecanone], the “Percent Change in abundance” value [1] was 18% and the “Percent Change” value [2] was 18%.

For `CCCOS(=O)(=O)OCCC` [Sulfuric acid dipropyl ester], the “Percent Change in abundance” value [1] was 56% and the “Percent Change” value [2] was 56%.

For `Cc1cc(C(C)(C)C)c2oc(=O)cc(C)c2c1` [4,6-Dimethyl-8-tert-butylcoumarin], the “Percent Change in abundance” value [1] was 27%.

For `C1CN2CCC1N1CCC2CC1` [1,5-diaatricyclo [4.2.2.2(2,5)]dodecane], the “Percent Change” value [2] was 625%.

For `CCCCCCCCCCCCCCC1(C(=O)O)CO1` (stereo not drawn) [Palmoxiric acid], the “Percent Change in abundance” value [1] was 35% and the “Percent Change” value [2] was 35%.

`CC(C)(C)[C@@H]1CCC[C@H](C(C)(C)C)C1=O` [cis-2,6-Di-tert-butylcyclohexanone] was tested, and the “Percent Change in abundance” value [1] was 35% and the “Percent Change” value [2] was 35%.

`CCOC(=O)CCCCCCCCCCCCC(=O)OCC` [Diethyl tetradecanedioate] was tested, and the “Percent Change in abundance” value [1] was 19%.

In the case of `Cc1ccccc1NC(=N)Nc1ccccc1C` [1,3-Di-o-tolylguanidine], the “Percent Change in abundance” value [1] was 400% and the “Percent Change” value [2] was 400%.

Bis-D-fructose 2′,1:2,1′-dianhydride was tested, and the “Percent Change in abundance” value [4] was 208% and the “Percent Change in abundance” value [1] was 1250%.

With `CC(=O)CC(=O)OC1CC(C)CCC1C(C)C` (stereo not drawn) [Menthyl acetoacetate] the “Percent Change in abundance” value [4] was 23%, the “Percent Change” value [6] was 23% and the “Percent Change in abundance” value [1] was 13%. For the same compound, the “Percent Change” value [2] was 13%.

For `CCOC(=O)N1CCN(C(=O)OCC)CC1` [Diethyl 1,4 piperazine dicarboxylate], the “Percent Change in abundance” value [4] was 54% and the “Percent Change” value [6] was 54%.

With `CON(C)C(=O)Nc1cccc(OC(=O)c2ccccc2)c1` [1-(3-benzoyloxyphenyl)-3-methyl-3-methoxyurea] the “Percent Change in abundance” value [4] was 192% and the “Percent Change” value [6] was 192%.

With `O=C1C2CCCN2C(=S)N1c1ccccc1` (stereo not drawn) [PTH-proline] the “Percent Change in abundance” value [1] was 43% and the “Percent Change” value [3] was 43%.

With `CC(C)[C@H](N)C(=O)O` [Valine] the “Percent Change” value [3] was 435%.

In the case of `CCCCCCCCCCCCCCCCCCCCCCCC(=O)O` [Lignoceric acid], the “Percent Change” value [5] was 5%, the “Percent Change in abundance” value [4] was 15% and the “Percent Change in abundance” value [1] was 13% and 5%.

`O=C1C(=O)C2C=CC1O2` [7-Oxabicyclo[2.2.1]-hept-5-ene-2,3-dione] was tested, and the “Percent Change” value [2] was 41%.

For `CCCCCCCCCCCC(=O)O` [Lauric acid], the “Percent Change” value [5] was 14% and the “Percent Change in abundance” value [1] was 21% and 14%.

In the case of `CCCCCCCCCCCCCCCC(=O)O` [Palmitic acid], the “Percent Change” value [5] was 4%, the “Percent Change in abundance” value [4] was 30% and the “Percent Change in abundance” value [1] was 4%.

In the case of `CCOC(=O)/C=C/C(=O)O` [Fumaric acid, monoethyl ester], the “Percent Change in abundance” value [4] was 56% and the “Percent Change in abundance” value [1] was 345%.

`CC(C)c1cccc(C(C)C)c1N=C1NCCN1` was tested, and the “Percent Change” value [2] was 345%.

`O=c1ccc2ccccc2o1` [Coumarin] was tested, and the “Percent Change in abundance” value [1] was 10%.

With `CCOC(=O)[C@H](Cc1ccc(O)cc1)NC(=O)c1ccccc1` [N-Benzoyl-L-tyrosine ethylester] the “Percent Change in abundance” value [1] was 50% and 52% and the “Percent Change” value [3] was 50% and 52%.

`O=C(O)CCCCCCCCCCCCC(=O)O` [Tetradecanedioic acid] was tested, and the “Percent Change” value [5] was 13% and the “Percent Change in abundance” value [1] was 13%.

`CCCCCCCCCCCCOCC(OCC)C(=O)OC` (stereo not drawn) [Propionic acid, 3-dodecyloxy-2-ethoxy-, methyl ester] was tested, and the “Percent Change in abundance” value [1] was 556% and the “Percent Change” value [2] was 556%.

For `CCCCCCCCCCCCCCCCCCCCCCCC(=O)OCC` [Ethyl tetracosanoate], the “Percent Change in abundance” value [4] was 30% and the “Percent Change in abundance” value [1] was 8%.

For `CO[C@]1(C)CC[C@@]23C[C@@H]1C(C)(C)[C@@H]2CC[C@H]3C` [Cedrol methyl ether], the “Percent Change in abundance” value [1] was 21% and the “Percent Change” value [2] was 21%.

For `O=C(O)C1=NCCC1` [delta1-Pyrroline 2-carboxylate], the “Percent Change in abundance” value [1] was 217% and the “Percent Change” value [3] was 217%.

With `COc1ccc2[nH]cc(CCN(C)C)c2c1` [N,N-dimethyl-5-methoxytryptamine] the “Percent Change in abundance” value [4] was 294%.
